Data as given in PubChem BioAssay AID504808 (Drosophila RNAi Screening Center, 2011)
Test: 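Genes whose loss lifts activity of an E2F-responsive reporter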 (primary screen). Cells: Drosophila S2 cells. Reagent: long dsRNA against Drosophila genes. Read-out: 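Dual luciferase plate measurements; E2F-specific signal taken as firefly over Renilla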. Reading the numbers: E2F firefly: higher = more E2F reporter activity; Renilla normaliser: higher = more normaliser reporter signal. Active means: 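a knock-down counted as active when the firefly/Renilla E2F signal rose above 50%, a threshold chosen arbitrarily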.
The deposit covers about 21,000 reagents; below is a random part of those with a known target gene and a result. Over the whole deposit, 18 (0.084%) got an active call. 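Raw counts without plate normalisation, one of two replicates; the ratio scores behind the calls were not deposited.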 Unmarked entries are inactive. Names joined by + are all predicted targets of the reagent. No sequences are given here. Not stated in the record: the amount of reagent, the time to read-out.

target gene | dsRNA | E2F firefly, rep 1 | Renilla normaliser, rep 1
ppk17 | DRSC02252 | 99269 | 4313
CG3625 | DRSC00008 | 1.58e5 | 5285
CG3625 | DRSC00621 | 89248 | 4189
Nf-YB | DRSC02057 | 87763 | 4367
mRpL4 | DRSC03562 | 77525 | 3416
CG13016 | DRSC06271 | 72436 | 2819
Echs1 | DRSC06999 | 1.09e5 | 4881
pirk | DRSC04269 | 1.10e5 | 4797
CG17192 | DRSC15186 | 1.05e5 | 5333
Tina-1 | DRSC04317 | 82288 | 3507
CG42390 | DRSC15866 | 62694 | 3389
rdgC | DRSC11387 | 1.30e5 | 6299
Sgs5 | DRSC16862 | 1.14e5 | 5948
ecd | DRSC08574 | 71337 | 2980
bdwf | DRSC15532 | 68522 | 3539
CG42788 | DRSC15330 | 1.17e5 | 6521
CG42788 | DRSC16139 | 1.28e5 | 7131
CG42788 | DRSC16152 | 1.10e5 | 5720
CG31872 | DRSC02568 | 1.40e5 | 4480
CG31872 | DRSC02572 | 1.42e5 | 4815
bwa | DRSC01749 | 99208 | 1583
bwa | DRSC02310 | 99035 | 3964
lectin-29Ca | DRSC02635 | 1.40e5 | 4944
CG8192 | DRSC07101 | 59702 | 2840
CG8892 | DRSC03121 | 94531 | 4197
Hmr | DRSC17740 | 1.18e5 | 5815
CG13564 | DRSC04201 | 1.20e5 | 5222
CG15699 (retired record) | DRSC06571 | 1.48e5 | 4837
CG17658 | DRSC04292 | 1.07e5 | 4287
obst-G | DRSC11103 | 1.11e5 | 7753
alpha-Est2 | DRSC12614 | 1.34e5 | 6130
Dp1 | DRSC07403 | 59285 | 2838
Idgf5 | DRSC06919 | 68130 | 180
CG12895 | DRSC06210 | 1.54e5 | 4788
Pal1 | DRSC06106 | 3278 | 229
TwdlE | DRSC02392 | 1.59e5 | 5323
Papss | DRSC11246 | 81947 | 3797
Ktl | DRSC14270 | 63285 | 3401
CG7458 | DRSC11829 | 1.47e5 | 7696
mod | DRSC16999 | 1947 | 916
wun2 | DRSC07566 | 1.58e5 | 5493
CG14143 | DRSC10146 | 1.19e5 | 5790
XNP | DRSC15594 | 1698 | 920
fs(1)M3 | DRSC18381 | 7883 | 744
CG3592 | DRSC18315 | 1.26e5 | 6436
CG6028 | DRSC15951 | 64446 | 3122
CG2003 | DRSC15411 | 1.26e5 | 5508
Wnk | DRSC11813 | 1.04e5 | 4771
Mnn1 | DRSC03368 | 1.60e5 | 4990
sog | DRSC20379 | 1.38e5 | 6552
CG13032 | DRSC09912 | 1.59e5 | 7438
SNCF | DRSC10115 | 1.28e5 | 7647
moody | DRSC18515 | 1.17e5 | 6174
CG13325 | DRSC06362 | 121 | 32
CG17618 (retired record) + CG45049 | DRSC16163 | 1.19e5 | 5939
Ubc6 | DRSC12370 | 70451 | 3384
CG15498 | DRSC15040 | 1.69e5 | 8291

Ordered by “Renilla normaliser, rep 1” (low to high): 6 of the entries above.
target gene | dsRNA | E2F firefly, rep 1 | Renilla normaliser, rep 1
ecd | DRSC08574 | 71337 | 2980
CG42390 | DRSC15866 | 62694 | 3389
bdwf | DRSC15532 | 68522 | 3539
Sgs5 | DRSC16862 | 1.14e5 | 5948
rdgC | DRSC11387 | 1.30e5 | 6299
CG42788 | DRSC15330 | 1.17e5 | 6521
